Measured values reported in article PMC10213043, “Different viral effectors suppress hormone-mediated antiviral immunity of rice coordinated by OsNPR1” (Nature Communications, 2023).
Results are given in words; binding and its absence hold for the method and conditions named. Binding calls can cover weak binding; strength is not graded here. Sequences can lack the tags named with a protein. For some assays here: Binding seen in cells or lysates may run through a third protein.

Chains of the proteins cited; added tags and fusions are not shown. Lines headed by an entry give the natural chain unless they say otherwise; changes in a name come on top.
UniProt Q5N8F6: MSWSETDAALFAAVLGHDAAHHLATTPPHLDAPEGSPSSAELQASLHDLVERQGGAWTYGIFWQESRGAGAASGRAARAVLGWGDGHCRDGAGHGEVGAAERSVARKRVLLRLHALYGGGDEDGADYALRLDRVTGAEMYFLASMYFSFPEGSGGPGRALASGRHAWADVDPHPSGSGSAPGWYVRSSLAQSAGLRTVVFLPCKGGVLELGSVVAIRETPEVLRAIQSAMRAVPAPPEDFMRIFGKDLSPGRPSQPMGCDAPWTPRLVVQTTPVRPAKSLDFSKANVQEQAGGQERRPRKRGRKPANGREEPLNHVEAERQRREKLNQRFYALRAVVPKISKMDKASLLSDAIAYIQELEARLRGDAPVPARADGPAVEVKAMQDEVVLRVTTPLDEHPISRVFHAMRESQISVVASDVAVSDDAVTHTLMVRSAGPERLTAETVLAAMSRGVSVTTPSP

How the values were obtained:
[1] = molecular target: T1, OsNPR1 fused with BD (yeast bait vector pGBKT7) (rice) (UniProt Q9FDY4); assay: two-hybrid; yeast AH109; OsNPR1 or its truncations on BD (pGBKT7), partner on AD (pGADT7); growth on SD-L-T-H-Ade, 30 °C, 3 days, with or without 0.1 mM SA
T1 sequence: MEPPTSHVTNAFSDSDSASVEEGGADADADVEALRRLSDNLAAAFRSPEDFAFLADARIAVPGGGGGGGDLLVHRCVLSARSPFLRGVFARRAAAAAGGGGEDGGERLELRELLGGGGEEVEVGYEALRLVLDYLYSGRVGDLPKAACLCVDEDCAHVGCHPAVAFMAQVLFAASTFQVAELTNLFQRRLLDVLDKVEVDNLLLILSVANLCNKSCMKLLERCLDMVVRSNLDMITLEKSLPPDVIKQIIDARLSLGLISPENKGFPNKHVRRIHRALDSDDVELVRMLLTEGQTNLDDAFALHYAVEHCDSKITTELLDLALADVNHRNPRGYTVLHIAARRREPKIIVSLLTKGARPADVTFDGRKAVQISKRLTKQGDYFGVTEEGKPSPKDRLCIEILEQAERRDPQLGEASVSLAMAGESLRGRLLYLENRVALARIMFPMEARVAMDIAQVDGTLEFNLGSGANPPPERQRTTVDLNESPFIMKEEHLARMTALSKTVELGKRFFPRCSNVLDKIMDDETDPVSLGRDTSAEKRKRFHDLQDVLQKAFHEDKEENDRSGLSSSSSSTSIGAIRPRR

[2] = molecular target: T2, OsNPR1-cYFP (rice) (UniProt Q9FDY4); assay: split reporter; BiFC: nYFP and cYFP fusions co-expressed in N. benthamiana leaves (WT or NahG transgenic), confocal microscopy at 48 h
T2 sequence: T1 sequence

[3] = molecular target: T3, nYFP-OsNPR1 (rice) (UniProt Q9FDY4); assay: split reporter; BiFC in N. benthamiana leaves with or without a third protein (P2-FLAG, with or without MG132; OsNPR1-MYC)
T3 sequence: T1 sequence

[4] = molecular target: T3, nYFP-OsNPR1 (rice); assay: split reporter; BiFC: nYFP and cYFP fusions co-expressed in N. benthamiana leaves (WT or NahG transgenic), confocal microscopy at 48 h
[5] = molecular target: T4, OsNPR1-GFP (rice) (UniProt Q9FDY4); assay: co-IP; protein competition Co-IP: two tagged proteins co-expressed in N. benthamiana leaves with or without a third protein (OsCTD-FLAG, P2-FLAG with 100 µM MG132, or OsNPR1)
T4 sequence: T1 sequence

[6] = molecular target: T4, OsNPR1-GFP (rice); assay: co-IP; transient co-expression in N. benthamiana leaves (WT or NahG transgenic), no SA added; IP lysis buffer with 10 mM DTT; anti-FLAG, GFP-trap or anti-c-Myc beads, about 2 h at 4 °C
[7] = molecular target: T4, OsNPR1-GFP (rice); assay: co-IP; protein competition Co-IP: OsNPR1-GFP and OsMYC3-MYC in N. benthamiana leaves with or without SP8-FLAG or M-FLAG; MG132 (100 µM) or DMSO at 24 hpi; GFP beads
[8] = molecular target: T5, GST-OsNPR1 (rice) (UniProt Q9FDY4); assay: pull-down; purified proteins, 5 µg GST-OsNPR1 with 5 µg MBP-HIS-OsNPR1 or 5 µg MBP-HIS-OsCUL3a, plus 1 or 10 µg MBP-HIS-P2 (or 10 µg MBP-HIS); held on glutathione sepharose beads, 4 °C, 2 h, washed with 1x PBS; both purified
T5 sequence: T1 sequence

[9] = molecular target: T2, OsNPR1-cYFP (rice); assay: split reporter; BiFC in N. benthamiana leaves with or without a third protein (P2-FLAG, with or without MG132; OsNPR1-MYC)
[10] = molecular target: T6, OsBTB-GFP (BTB domain of OsNPR1) (rice) (UniProt Q9FDY4); assay: co-IP; protein competition Co-IP: two tagged proteins co-expressed in N. benthamiana leaves with or without a third protein (OsCTD-FLAG, P2-FLAG with 100 µM MG132, or OsNPR1)
T6 sequence: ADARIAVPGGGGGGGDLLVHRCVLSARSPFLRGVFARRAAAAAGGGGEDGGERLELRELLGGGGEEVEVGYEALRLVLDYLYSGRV

[11] = molecular target: T6, OsBTB-GFP (BTB domain of OsNPR1) (rice); assay: co-IP; transient co-expression in N. benthamiana leaves (WT or NahG transgenic), no SA added; IP lysis buffer with 10 mM DTT; anti-FLAG, GFP-trap or anti-c-Myc beads, about 2 h at 4 °C
[12] = molecular target: T7, BTB domain of OsNPR1 as a split-luciferase fusion (LCI) (rice) (UniProt Q9FDY4); assay: split reporter; firefly luciferase complementation imaging (LCI): nLuc and cLuc fusions co-expressed in N. benthamiana leaves, about 48 h
T7 sequence: T6 sequence

RSV P2 fused with AD (yeast prey vector pGADT7) (rice stripe virus)
binding [1]: binds

nYFP-P2 (rice stripe virus)
binding [2]: binds

OsMYC3-cYFP (from UniProt Q5N8F6)
binding [3]: binds | binding [4]: binds

OsMYC3-MYC (from UniProt Q5N8F6)
binding [5]: binds | binding [6]: binds | binding [7]: binds

MBP-HIS-P2 (rice stripe virus)
binding [8]: binds

OsJAZ11 (yeast two-hybrid fusion) (rice)
binding [1]: binds

OsJAZ5 (yeast two-hybrid fusion) (rice)
binding [1]: binds

P2-FLAG (rice stripe virus)
binding [9]: binds | binding [3]: binds | binding [5]: binds

OsCTD-MYC (C-terminal domain of OsNPR1) (rice) (domain or fragment)
binding [10]: binds | binding [11]: binds

OsMED25 expressed in N. benthamiana for Co-IP (rice)
binding [6]: no binding

OsCTD-FLAG (C-terminal domain of OsNPR1) (rice) (domain or fragment)
binding [10]: binds

OsJAZ9 (yeast two-hybrid fusion) (rice)
binding [1]: binds

CTD domain of OsNPR1 as a split-luciferase fusion (LCI) (rice) (domain or fragment)
binding [12]: binds

nYFP-OsJAZ9 (rice)
binding [2]: binds
